PubChem BioAssay AID493246, Drosophila RNAi Screening Center | 2011
Test: 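Genome-wide search for dsRNAs that reduce cell number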 (primary screen). System: Drosophila Kc and S2R+ cells. Reagents: long dsRNA against Drosophila genes. Detection: 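Cell number per well after knock-down, printed as raw plate values; calls were based on per-plate z-scores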. Reading the numbers: Kc cell number and S2R+ cell number: higher = more cells remaining. Hit rule: 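Counted as a hit if cell number falls by a z-score of at least 3 within its plate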.
In all, the deposit lists about 21,000 reagents; this is a random part of those that have a named target and a result. Over the whole deposit, 429 (2%) are marked active. 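Values are raw and not normalised between plates; calls rest on per-plate z-scores that were not deposited.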 Not stated in the record: the amount of reagent, the time to read-out.

predicted target | amplicon | Kc cell number, rep 1 | Kc cell number, rep 2 | S2R+ cell number, rep 1 | S2R+ cell number, rep 2 | Call
gfzf | DRSC12506 | 1.43e6 | 1.55e6 | 1.36e6 | 1.49e6 | inactive
CG34266 | DRSC08323 | 1.18e6 | 1.17e6 | 1.09e6 | 1.14e6 | inactive
gny | DRSC02810 | 1.31e6 | 1.36e6 | 1.19e6 | 1.31e6 | inactive
Cyp313b1 | DRSC16629 | 1.46e6 | 1.75e6 | 1.23e6 | 1.29e6 | inactive
CG32021 (retired record) | DRSC17206 | 1.67e6 | 1.64e6 | 1.13e6 | 1.31e6 | inactive
CG34461 | DRSC10767 | 1.65e6 | 1.70e6 | 1.33e6 | 1.17e6 | inactive
Dronc | DRSC11231 | 1.31e6 | 1.29e6 | 1.47e6 | 1.18e6 | inactive
Lrr47 | DRSC03365 | 1.32e6 | 1.21e6 | 1.04e6 | 1.02e6 | inactive
nord | DRSC04210 | 1.50e6 | 1.59e6 | 1.24e6 | 1.34e6 | inactive
nord | DRSC04361 | 1.55e6 | 1.64e6 | 1.18e6 | 1.31e6 | inactive
Fkbp14 | DRSC04615 | 1.44e6 | 1.52e6 | 1.14e6 | 1.31e6 | inactive
CG13070 | DRSC09953 | 1.24e6 | 1.41e6 | 1.33e6 | 1.45e6 | inactive
Pi4KIIalpha | DRSC12322 | 1.44e6 | 1.56e6 | 1.20e6 | 1.25e6 | inactive
Pi4KIIalpha | DRSC12323 | 1.50e6 | 1.81e6 | 1.22e6 | 1.32e6 | inactive

In a second layout: results already given
Dronc [DRSC11231]
- Kc cell number, rep 1: 1.31e6
- Kc cell number, rep 2: 1.29e6
- S2R+ cell number, rep 1: 1.47e6
- S2R+ cell number, rep 2: 1.18e6
- Call: inactive

Lrr47 [DRSC03365]
- Kc cell number, rep 1: 1.32e6
- Kc cell number, rep 2: 1.21e6
- S2R+ cell number, rep 1: 1.04e6
- S2R+ cell number, rep 2: 1.02e6
- Call: inactive

nord [DRSC04210]
- Kc cell number, rep 1: 1.50e6
- Kc cell number, rep 2: 1.59e6
- S2R+ cell number, rep 1: 1.24e6
- S2R+ cell number, rep 2: 1.34e6
- Call: inactive

nord [DRSC04361]
- Kc cell number, rep 1: 1.55e6
- Kc cell number, rep 2: 1.64e6
- S2R+ cell number, rep 1: 1.18e6
- S2R+ cell number, rep 2: 1.31e6
- Call: inactive

The listing continues.
predicted target | amplicon | Kc cell number, rep 1 | Kc cell number, rep 2 | S2R+ cell number, rep 1 | S2R+ cell number, rep 2 | Call
CG6231 | DRSC15997 | 1.22e6 | 1.22e6 | 1.01e6 | 1.12e6 | inactive
Fst | DRSC16491 | 1.60e6 | 1.66e6 | 1.27e6 | 1.33e6 | inactive
Kr-h1 | DRSC00908 | 1.45e6 | 1.38e6 | 1.07e6 | 1.22e6 | inactive
Kr-h1 | DRSC03355 | 1.44e6 | 1.38e6 | 5.72e5 | 7.66e5 | inactive
scat | DRSC02722 | 1.29e6 | 1.38e6 | 1.23e6 | 1.18e6 | inactive
fd19B | DRSC20688 | 1.64e6 | 1.62e6 | 1.09e6 | 1.18e6 | inactive
CG10936 | DRSC05669 | 6.35e5 | – | 8.83e5 | – | inactive
CG10936 | DRSC05670 | 6.01e5 | – | 8.21e5 | – | inactive
CG10936 | DRSC06018 | 1.51e6 | 1.57e6 | 1.18e6 | 1.33e6 | inactive
NijC | DRSC14851 | 1.70e6 | 1.68e6 | 1.36e6 | 1.48e6 | inactive
Hacd1 | DRSC02988 | 1.33e6 | 1.36e6 | 1.08e6 | 1.15e6 | inactive
CG3165 | DRSC00573 | 1.32e6 | 1.33e6 | 9.78e5 | 1.07e6 | inactive
Diap2 | DRSC07444 | 1.34e6 | 1.41e6 | 1.06e6 | 1.09e6 | inactive
CG14314 | DRSC14793 | 1.42e6 | 1.34e6 | 1.03e6 | 1.14e6 | inactive
Doa | DRSC13892 | 1.33e6 | 1.56e6 | 1.06e6 | 1.11e6 | inactive
Doa | DRSC13893 | 1.33e6 | 1.47e6 | 1.06e6 | 1.07e6 | inactive
Doa | DRSC13895 | 1.26e6 | 1.47e6 | 1.11e6 | 1.06e6 | inactive
Doa | DRSC13896 | 1.32e6 | 1.51e6 | 1.07e6 | 1.08e6 | inactive
Doa | DRSC13897 | 1.31e6 | 1.48e6 | 1.13e6 | 1.10e6 | inactive
Doa | DRSC16650 | 5.33e5 | – | 9.35e5 | – | inactive
meru | DRSC09400 | 1.41e6 | 1.49e6 | 1.12e6 | 1.29e6 | inactive
meru | DRSC09899 | 1.28e6 | 1.39e6 | 9.39e5 | 1.08e6 | inactive
meru | DRSC10215 | 1.37e6 | 1.36e6 | 1.25e6 | 1.33e6 | inactive
Dph1 | DRSC09851 | 1.31e6 | 1.37e6 | 1.07e6 | 1.09e6 | inactive
Or67a | DRSC11240 | 1.36e6 | 1.25e6 | 1.30e6 | 1.43e6 | inactive
CG17786 | DRSC15270 | 1.55e6 | 1.69e6 | 9.47e5 | 1.08e6 | inactive
